# Data taken from PMC8784754.
# Columns and labels:
# [1] = tested on: GST-CsWRKY25-C; experiment: EMSA; conditions: cold probe competes; Chemiluminescent EMSA Kit (Beyotime); recombinant protein; protein details: GST (N-terminal, pGEX-6p-1); label: biotin
# [2] = tested on: GST-CsWRKY25-C; experiment: competition with a labelled probe; conditions: Chemiluminescent EMSA Kit (Beyotime), recombinant protein, protein details: GST (N-terminal, pGEX-6p-1)
# [3] = tested on: GST; experiment: EMSA; conditions: GST only control; Chemiluminescent EMSA Kit (Beyotime); recombinant protein; protein details: GST; label: biotin
sequence,measurement,setting,value
AGTTGAGGGAGAAGTCAATTGTGTTTCGCAAATAGTCAAAAAAAAAATAAATTGAT (double strand) [CsRbohB probe],binding result,[1],binds
AGTTGAGGGAGAATTTTTTTGTGTTTCGCAAATATTTTTAAAAAAAATAAATTGAT / ATCAATTTATTTTTTTTTAAAAAATTTGCGAAACACAATAAAAATCTCCCTCAACT [CsRbohB mutant probe],binding result,[2]; mutant competitor up to 100-fold vs N3,no binding
TTACTAATTTGAAAAATTTGCTCGGCTTTGGTTGAAATGT (double strand) [CsPR10 mutant probe],binding result,[2]; mutant competitor up to 100-fold vs N5,no binding
TTACTAATTTGTTGACTTTGCTCGGCTTTGGTTGAAATGT (double strand) [CsPR10 probe],binding result,[1],binds
TTCTCTAAAAAATTCAGCTATATAAACAGTCAATGTGTCATTTTAATTGGATTACAC (double strand) [CsRbohD probe],binding result,[1],binds
same,binding result,[3],no binding
TTCTCTAAAAAATTCAGCTATATAAACATTTTTTGTTTTTTTTTAATTGGATTACAC (double strand) [CsRbohD mutant probe],binding result,[2]; mutant competitor up to 100-fold vs N1,no binding

# Construct, isoform or probe ends are uncertain for at least one entry. For some of these results: No signal at the amounts used counts as a negative. For some of these results: At least one verdict rests on a figure or table, not on a statement of the authors.
